The assay addresses Flag-tagged GPRC5D membrane protein (human). The assay can be described thus: ELISA, phage-displayed nanobody on purified GPRC5D protein (FIG. 7). (ELISA stands for enzyme-linked immunosorbent assay.)

These are yes or no findings as the source states them, for the method shown. Binding calls can cover weak binding; strength is not graded here.

B1: candidate nanobody 1-F7 (VHH, not shown: large carriers)
VHH: QLQLVESGGGLVQPGGSLRLSCAASGSIFSVHDMAWYRQAPGKQRELVAAITSGGKANYPDSVKGRFTISRDNAKNTVYLEMNRLKPEDTAVYYCNKRWPVKYAWGQGTQVTVSS
Take B1: the binding result is “binds”.

B2: candidate nanobody 1-C12 (VHH, not shown: large carriers)
VHH: EVQVVESGGGLVQAGGSLRVSCAASERTLSNYVMGWFRQAPGKSREFVAGIRWADGASYYADSVKGRFTISRDNAGNTVYLQMNSLKPEDTAVYYCTGGGIRTWSRKDPTSYRYWGQGTQVTVSS
On to B2, for which the binding result is on record as “binds”.

B3: candidate nanobody 1-D9 (VHH, not shown: large carriers)
VHH: QVQLVESGGGSVQAGGSLRLSCAASERTFSNYAMGWFRQAPGKEREFVAAIAWSGEITNYADSVKGRFTVSRDIDKNTVYLQMNSLKPEDTAVYYCAGVRYRNYRTTRPTDFGSWGQGTQVTVSS
For B3, the binding entry is “binds”.

B4: candidate nanobody 1-G7 (VHH, not shown: large carriers)
VHH: EVQLVESGGGLAQPGGSLRLSCAASGIISSAYIMGWYRQAPGKQRELVATINGGRLNYADSVKGRFTISSDNAKNTVYLQMNSLKPEDTAVYYCYAQRTNAYWGQGTQVTVSS
Turning to B4, the binding result is on record as “binds”.

B5: candidate nanobody 1-E8 (VHH, not shown: large carriers)
VHH: DVQLQESGGGLVQAGGSLRLSCAASGRAFSNYAMGWFRQAPGKEREFVAEASWSGRSTRYADSVKGRFTISRDNAKNTGYLQMSNLKPEDTAVYYCATSRTVVIGPGAKYDYWGQGTQVTVSS
Regarding B5, the binding result is given as “binds”.

These data come from patent publication US20260103528A1.
